From publication PMC5347701
Results are given in words; binding and its absence hold for the method and conditions named. Binding seen in cells or lysates may run through a third protein. Some results given as binding are weak or reduced against the parent protein; the word gives no strength. For part of these data: Tags and fused reporters may be left off the sequences shown.

Amino acid sequences for entries named in this document (tags omitted).
UniProt O95863: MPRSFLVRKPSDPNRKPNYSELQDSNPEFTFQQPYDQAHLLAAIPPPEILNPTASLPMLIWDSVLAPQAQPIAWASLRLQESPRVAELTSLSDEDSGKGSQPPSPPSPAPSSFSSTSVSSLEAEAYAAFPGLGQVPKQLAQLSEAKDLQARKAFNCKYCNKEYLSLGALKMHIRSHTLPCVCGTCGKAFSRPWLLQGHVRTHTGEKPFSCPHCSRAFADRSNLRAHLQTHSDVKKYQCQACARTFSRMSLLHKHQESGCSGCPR

T1: HA-HES1 (UniProt Q14469)
T1 sequence: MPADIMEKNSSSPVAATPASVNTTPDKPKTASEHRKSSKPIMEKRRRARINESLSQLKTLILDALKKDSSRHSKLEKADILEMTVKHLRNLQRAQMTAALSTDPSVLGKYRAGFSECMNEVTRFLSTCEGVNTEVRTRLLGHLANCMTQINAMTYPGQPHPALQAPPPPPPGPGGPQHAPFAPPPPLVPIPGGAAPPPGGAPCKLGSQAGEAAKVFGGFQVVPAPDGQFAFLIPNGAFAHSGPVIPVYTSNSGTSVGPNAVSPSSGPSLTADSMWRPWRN


How the values were obtained:
[1] = target: Snail1 (human (endogenous in U251)) (UniProt O95863); assay: co-IP; mutual co-immunoprecipitation at endogenous levels in U251 cells, followed by immunoblotting
HA-HES1 = target: T1, HA-HES1; assay: co-IP; mutual co-immunoprecipitation at exogenous levels, myc- and HA-tagged proteins co-transfected in U251 cells (2 μg of each plasmid), followed by immunoblotting
HA-Snail1 = HA-Snail1 (UniProt O95863); assay: as above

Binder	binding [1]	binding (HA-HES1)	binding (HA-Snail1)
RND3 (protein, UniProt P61587 1-244) MKERRASQKLSSKSIMDPNQNVKCKIVVVGDSQCGKTALLHVFAKDCFPENYVPTVFENYTASFEIDTQRIELSLWDTSGSPYYDNVRPLSYPDSDAVLICFDISRPETLDSVLKKWKGEIQEFCPNTKMLLVGCKSDLRTDVSTLVELSNHRQTPVSYDQGANMAKQIGAATYIECSALQSENSVRDIFHVATLACVNKTNKNVKRNKSQRATKRISHMPSRPELSAVATDLRKDKAKSCTVM	binds	–	–
myc-RND3 (protein, UniProt P61587 1-244) MKERRASQKLSSKSIMDPNQNVKCKIVVVGDSQCGKTALLHVFAKDCFPENYVPTVFENYTASFEIDTQRIELSLWDTSGSPYYDNVRPLSYPDSDAVLICFDISRPETLDSVLKKWKGEIQEFCPNTKMLLVGCKSDLRTDVSTLVELSNHRQTPVSYDQGANMAKQIGAATYIECSALQSENSVRDIFHVATLACVNKTNKNVKRNKSQRATKRISHMPSRPELSAVATDLRKDKAKSCTVM	–	no binding	binds
